Experimental findings from the supplement of paper PMC10849652 are described below.

Amino acid sequences for entries named in this document (tags omitted). A change or cut given only in a name is not applied to a line headed by its entry.
UniProt P22415: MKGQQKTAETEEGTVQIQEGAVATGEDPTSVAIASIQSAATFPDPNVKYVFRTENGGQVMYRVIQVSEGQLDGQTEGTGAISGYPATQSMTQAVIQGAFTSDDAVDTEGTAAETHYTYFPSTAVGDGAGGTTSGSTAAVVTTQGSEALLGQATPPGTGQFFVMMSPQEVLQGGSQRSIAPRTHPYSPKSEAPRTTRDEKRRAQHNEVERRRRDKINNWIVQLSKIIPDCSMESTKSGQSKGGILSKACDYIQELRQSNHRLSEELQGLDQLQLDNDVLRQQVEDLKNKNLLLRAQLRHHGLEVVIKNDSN
UniProt A0JNW5: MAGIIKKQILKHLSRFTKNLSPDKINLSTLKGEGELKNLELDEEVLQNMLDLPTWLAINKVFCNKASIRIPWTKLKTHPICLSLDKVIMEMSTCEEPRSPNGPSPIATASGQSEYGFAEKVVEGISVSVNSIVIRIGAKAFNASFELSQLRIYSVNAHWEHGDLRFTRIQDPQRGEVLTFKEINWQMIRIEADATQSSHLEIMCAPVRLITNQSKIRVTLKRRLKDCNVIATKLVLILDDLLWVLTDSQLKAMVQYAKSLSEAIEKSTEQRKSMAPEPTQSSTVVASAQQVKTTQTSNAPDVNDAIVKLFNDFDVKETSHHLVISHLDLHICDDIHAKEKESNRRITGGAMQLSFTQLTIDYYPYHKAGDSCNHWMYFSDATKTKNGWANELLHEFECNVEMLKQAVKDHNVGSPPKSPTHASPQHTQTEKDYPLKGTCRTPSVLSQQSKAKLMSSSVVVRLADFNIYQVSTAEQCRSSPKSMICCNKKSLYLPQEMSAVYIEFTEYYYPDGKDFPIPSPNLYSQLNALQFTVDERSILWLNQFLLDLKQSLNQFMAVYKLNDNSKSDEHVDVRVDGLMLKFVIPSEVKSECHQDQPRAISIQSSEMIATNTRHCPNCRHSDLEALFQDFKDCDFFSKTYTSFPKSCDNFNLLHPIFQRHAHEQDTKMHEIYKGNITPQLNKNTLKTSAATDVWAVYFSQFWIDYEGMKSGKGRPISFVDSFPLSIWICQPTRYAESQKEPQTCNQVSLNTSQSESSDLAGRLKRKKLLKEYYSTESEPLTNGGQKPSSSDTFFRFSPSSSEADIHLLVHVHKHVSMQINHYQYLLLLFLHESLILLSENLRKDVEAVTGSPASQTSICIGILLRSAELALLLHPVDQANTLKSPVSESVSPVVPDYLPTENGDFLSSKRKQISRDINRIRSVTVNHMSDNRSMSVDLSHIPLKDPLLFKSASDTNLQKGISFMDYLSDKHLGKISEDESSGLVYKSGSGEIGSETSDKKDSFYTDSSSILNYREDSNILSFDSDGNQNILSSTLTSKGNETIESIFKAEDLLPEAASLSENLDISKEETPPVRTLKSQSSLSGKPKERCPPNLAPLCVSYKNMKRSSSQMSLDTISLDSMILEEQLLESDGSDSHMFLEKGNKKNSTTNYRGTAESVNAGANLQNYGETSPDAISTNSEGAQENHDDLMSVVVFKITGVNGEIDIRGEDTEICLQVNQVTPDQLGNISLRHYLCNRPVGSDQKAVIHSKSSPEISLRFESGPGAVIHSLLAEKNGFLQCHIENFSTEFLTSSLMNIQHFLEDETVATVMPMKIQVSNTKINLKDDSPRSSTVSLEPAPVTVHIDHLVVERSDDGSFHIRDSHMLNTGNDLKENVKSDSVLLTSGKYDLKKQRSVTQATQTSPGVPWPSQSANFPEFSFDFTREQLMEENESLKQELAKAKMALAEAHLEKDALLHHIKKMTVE
UniProt P61758, whole entry, looked up: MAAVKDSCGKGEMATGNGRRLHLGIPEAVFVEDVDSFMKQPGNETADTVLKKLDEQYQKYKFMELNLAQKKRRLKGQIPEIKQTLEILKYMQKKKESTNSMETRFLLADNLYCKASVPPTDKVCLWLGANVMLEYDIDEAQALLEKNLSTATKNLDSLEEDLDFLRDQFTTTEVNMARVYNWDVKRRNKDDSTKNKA
UniProt Q16851: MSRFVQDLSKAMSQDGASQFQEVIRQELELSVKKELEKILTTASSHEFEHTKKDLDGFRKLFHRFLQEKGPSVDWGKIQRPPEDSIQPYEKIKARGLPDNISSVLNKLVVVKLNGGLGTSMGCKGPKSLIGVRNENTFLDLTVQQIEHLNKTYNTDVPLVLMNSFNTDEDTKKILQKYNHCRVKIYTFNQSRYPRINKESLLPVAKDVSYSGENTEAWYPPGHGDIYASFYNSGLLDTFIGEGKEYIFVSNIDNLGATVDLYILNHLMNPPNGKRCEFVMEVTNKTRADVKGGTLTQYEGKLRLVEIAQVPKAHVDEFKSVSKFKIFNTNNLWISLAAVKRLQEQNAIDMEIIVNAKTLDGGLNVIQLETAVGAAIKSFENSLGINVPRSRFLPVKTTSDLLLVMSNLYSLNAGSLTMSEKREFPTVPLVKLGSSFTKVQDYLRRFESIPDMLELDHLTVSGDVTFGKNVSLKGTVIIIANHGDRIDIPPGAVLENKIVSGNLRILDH
UniProt P11172: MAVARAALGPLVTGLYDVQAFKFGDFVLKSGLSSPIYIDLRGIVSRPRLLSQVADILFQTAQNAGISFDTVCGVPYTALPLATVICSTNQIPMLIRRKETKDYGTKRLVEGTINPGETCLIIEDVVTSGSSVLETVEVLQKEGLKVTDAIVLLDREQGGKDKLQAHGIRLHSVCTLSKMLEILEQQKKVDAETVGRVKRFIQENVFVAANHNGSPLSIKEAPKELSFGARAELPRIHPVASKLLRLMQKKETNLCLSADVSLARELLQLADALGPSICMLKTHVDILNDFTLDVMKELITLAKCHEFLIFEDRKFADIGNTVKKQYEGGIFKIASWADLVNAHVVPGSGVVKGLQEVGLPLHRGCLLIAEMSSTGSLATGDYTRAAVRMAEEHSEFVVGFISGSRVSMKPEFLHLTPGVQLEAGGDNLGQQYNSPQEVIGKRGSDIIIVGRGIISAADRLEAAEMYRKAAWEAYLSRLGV
UniProt P22695: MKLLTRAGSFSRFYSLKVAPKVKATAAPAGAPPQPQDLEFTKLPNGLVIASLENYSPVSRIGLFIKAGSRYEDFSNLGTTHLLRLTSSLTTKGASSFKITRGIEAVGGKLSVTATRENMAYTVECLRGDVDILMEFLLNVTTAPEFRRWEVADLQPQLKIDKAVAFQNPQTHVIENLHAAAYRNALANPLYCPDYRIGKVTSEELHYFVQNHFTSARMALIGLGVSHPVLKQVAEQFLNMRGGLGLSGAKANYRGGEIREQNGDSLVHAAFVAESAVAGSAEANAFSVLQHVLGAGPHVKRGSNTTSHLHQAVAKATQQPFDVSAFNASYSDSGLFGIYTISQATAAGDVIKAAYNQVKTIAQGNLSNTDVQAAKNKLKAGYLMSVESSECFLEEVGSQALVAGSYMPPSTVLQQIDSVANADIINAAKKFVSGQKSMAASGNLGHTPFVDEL
UniProt O94763, whole entry, looked up: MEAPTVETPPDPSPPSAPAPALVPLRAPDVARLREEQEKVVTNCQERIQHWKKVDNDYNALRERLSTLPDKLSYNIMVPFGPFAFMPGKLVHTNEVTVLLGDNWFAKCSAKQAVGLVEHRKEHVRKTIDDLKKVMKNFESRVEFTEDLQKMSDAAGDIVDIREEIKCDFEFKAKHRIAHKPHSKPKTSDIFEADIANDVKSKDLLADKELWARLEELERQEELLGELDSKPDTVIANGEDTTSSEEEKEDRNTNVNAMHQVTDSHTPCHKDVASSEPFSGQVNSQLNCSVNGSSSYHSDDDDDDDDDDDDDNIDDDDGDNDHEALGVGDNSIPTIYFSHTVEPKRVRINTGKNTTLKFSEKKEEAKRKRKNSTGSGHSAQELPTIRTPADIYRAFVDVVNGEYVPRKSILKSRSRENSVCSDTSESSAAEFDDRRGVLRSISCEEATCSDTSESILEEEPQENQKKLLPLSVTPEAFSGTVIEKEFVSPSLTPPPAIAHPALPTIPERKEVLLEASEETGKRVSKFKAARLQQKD
UniProt Q9Y3C8: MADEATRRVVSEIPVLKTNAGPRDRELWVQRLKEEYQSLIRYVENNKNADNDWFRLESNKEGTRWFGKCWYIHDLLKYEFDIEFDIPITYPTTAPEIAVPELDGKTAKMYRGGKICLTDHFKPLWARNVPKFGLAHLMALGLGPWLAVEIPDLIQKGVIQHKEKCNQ
UniProt P11441: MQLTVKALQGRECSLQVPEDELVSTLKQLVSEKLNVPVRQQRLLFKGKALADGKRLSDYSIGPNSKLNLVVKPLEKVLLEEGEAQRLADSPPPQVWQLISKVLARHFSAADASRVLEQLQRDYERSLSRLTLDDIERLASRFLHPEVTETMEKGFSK
UniProt Q9NUQ7: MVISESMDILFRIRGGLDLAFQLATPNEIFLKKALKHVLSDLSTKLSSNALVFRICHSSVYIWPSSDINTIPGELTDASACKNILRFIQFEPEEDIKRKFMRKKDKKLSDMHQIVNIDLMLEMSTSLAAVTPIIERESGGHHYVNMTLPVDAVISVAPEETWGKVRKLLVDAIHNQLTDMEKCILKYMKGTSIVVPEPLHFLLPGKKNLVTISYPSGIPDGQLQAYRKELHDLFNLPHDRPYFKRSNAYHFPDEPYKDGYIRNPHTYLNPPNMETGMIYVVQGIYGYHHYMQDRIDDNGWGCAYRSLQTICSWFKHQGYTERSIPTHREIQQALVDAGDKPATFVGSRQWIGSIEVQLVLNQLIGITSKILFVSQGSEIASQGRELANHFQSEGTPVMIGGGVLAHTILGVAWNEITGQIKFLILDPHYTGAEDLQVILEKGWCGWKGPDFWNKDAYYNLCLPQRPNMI
UniProt Q08AM6: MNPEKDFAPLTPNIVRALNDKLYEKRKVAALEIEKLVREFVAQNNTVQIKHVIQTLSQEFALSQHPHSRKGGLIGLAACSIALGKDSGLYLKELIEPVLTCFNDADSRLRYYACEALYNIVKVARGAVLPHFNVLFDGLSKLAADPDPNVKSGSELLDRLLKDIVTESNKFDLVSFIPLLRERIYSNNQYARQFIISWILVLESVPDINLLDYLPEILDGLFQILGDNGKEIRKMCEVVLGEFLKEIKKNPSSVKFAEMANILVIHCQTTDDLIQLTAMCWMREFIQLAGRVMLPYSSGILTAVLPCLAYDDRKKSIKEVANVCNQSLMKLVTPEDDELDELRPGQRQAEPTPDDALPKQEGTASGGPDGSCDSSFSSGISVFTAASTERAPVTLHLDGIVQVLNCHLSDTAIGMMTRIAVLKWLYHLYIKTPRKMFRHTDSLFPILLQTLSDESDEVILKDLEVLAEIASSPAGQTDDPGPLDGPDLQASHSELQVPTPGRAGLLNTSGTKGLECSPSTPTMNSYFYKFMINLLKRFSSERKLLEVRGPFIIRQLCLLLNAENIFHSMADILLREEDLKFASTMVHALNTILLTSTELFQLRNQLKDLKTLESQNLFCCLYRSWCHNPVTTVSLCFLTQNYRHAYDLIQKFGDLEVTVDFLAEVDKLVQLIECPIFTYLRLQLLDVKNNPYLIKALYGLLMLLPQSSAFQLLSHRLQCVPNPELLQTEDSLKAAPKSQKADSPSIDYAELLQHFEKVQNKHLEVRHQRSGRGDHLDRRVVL
UniProt Q9UHP3: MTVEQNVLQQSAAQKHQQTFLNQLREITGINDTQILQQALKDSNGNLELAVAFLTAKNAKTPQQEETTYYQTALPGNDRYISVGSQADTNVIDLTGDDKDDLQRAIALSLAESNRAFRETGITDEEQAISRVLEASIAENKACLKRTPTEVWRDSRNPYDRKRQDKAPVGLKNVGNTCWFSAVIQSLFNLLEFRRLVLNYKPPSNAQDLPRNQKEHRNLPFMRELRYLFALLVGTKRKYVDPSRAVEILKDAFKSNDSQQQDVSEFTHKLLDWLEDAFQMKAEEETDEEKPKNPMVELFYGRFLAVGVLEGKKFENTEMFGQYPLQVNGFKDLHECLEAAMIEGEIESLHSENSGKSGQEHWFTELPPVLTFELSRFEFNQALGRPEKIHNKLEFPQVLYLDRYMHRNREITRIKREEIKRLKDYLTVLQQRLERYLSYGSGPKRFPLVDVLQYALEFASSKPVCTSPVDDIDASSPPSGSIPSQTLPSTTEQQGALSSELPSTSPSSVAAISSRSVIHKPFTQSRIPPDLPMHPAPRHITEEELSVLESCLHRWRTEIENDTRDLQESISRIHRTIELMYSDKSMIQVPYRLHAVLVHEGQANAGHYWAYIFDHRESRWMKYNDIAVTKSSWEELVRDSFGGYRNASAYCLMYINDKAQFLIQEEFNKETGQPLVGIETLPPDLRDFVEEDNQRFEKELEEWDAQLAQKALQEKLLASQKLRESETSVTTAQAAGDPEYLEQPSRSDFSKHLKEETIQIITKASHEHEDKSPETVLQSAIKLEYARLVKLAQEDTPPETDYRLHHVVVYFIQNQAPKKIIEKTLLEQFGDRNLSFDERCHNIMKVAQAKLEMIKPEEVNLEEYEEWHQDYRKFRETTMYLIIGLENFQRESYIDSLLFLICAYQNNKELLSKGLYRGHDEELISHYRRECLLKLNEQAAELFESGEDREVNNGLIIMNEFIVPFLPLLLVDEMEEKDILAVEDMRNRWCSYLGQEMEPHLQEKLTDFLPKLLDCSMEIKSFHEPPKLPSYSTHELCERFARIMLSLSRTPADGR

The list shows a part of the results.

Compound in the assay: C1=CC2=NC=CN=C2C=C1/C=C/3\C(=O)NC(=O)S3
As to the kind of experiment: log2 fold change, soluble protein after heating vs DMSO (PISA); higher = thermal stabilisation; K562 cells, 10 uM, 30 min; active = over 0.2 and 3.5 SD of the protein, either way, in both replicates (recomputed). The procedure, abridged:
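K562 cells at 2×10^6 cells/mL were given 10 μM compound for 30 min. Aliquots then went through 3 min of heating across 48°C-58°C, were pooled, and were extracted in PBS with 0.5% NP-40 at 4°C, and the supernatant after 21,000xg for 90 min was quantified by TMTpro 16plex LC-MS/MS with channel sums equalised. Thermal stability relative to control samples, from duplicates, is given as log2 fold change.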
Consider USF1 (UniProt P22415), for which the log2 fold change is inactive: -0.076.
Regarding UHRF1BP1L (UniProt A0JNW5), the log2 fold change is inactive: 0.01.
Regarding VBP1 (UniProt P61758), the log2 fold change was inactive: -0.003.
For UTP15 (UniProt Q8TED0), the log2 fold change is inactive: -0.029.
As for UPRT (UniProt Q96BW1), the log2 fold change is inactive: 0.039.
For UGP2 (UniProt Q16851) the value was inactive: 0.003; for UGT8 (UniProt Q16880), inactive: -0.124.
As for UMPS (UniProt P11172), the log2 fold change is inactive: 0.012.
In the case of UPF3B (UniProt Q9BZI7), the log2 fold change is inactive: -0.072.
On to UVRAG (UniProt Q9P2Y5), for which the log2 fold change was inactive: 0.105.
Take VAMP7 (UniProt P51809): the log2 fold change was inactive: 0.007.
For UQCRC2 (UniProt P22695) the value was inactive: 0.027; for USP20 (UniProt Q9Y2K6), inactive: -0.055.
For VCP (UniProt P55072) the value was inactive: -0.001.
Turning to URI1 isoform 4 (UniProt O94763), the log2 fold change was inactive: -0.051.
For USO1 isoform 2 (UniProt O60763) the value was inactive: 0.059; for UFC1 (UniProt Q9Y3C8), inactive: 0.012.
For VAMP4 (UniProt O75379) the value was inactive: 0.048; for UBL4A (UniProt P11441), inactive: 0.053; for UFSP2 (UniProt Q9NUQ7), inactive: 0.004.
On to VAC14 (UniProt Q08AM6), for which the log2 fold change is inactive: 0.05.
On to USP25 isoform 3 (UniProt Q9UHP3), for which the log2 fold change is inactive: 0.005.
On to USP3 (UniProt Q9Y6I4), for which the log2 fold change is inactive: 0.014.
